Test results as given in patent US20090030005A1, “Combinations for the treatment of cancer” (AMGEN INC., priority 2007, published 2009).
At least one read-out could not be matched to a standard name with certainty. For some of these results: At least one structure is not confirmed: it was looked up by name or label, or the drawing left a doubt.

Legend:
MTAP+/+ MiaPaCa-2 cells = assay: 14C-thymidine incorporation assay (cell viability) in MTAP+/+ MiaPaCa-2 cells; format: cell-based; conditions: for Effect on the IC50 of the CDK4 inhibitor: agent dosed at IC20
Method: (§1) Generation of MTAP^+/+ and MTAP^−/− MiaPaCa-2 cells. MiaPaCa-2 pancreatic cells, which harbor a homozygous deletion in MTAP (MTAP^−/−) were obtained from ATCC. Cells were infected with either a control virus (pLPC) or a virus expressing MTAP (pLPC-MTAP). Infected cells were selected by puromycin resistance and maintained in 0.5 μg/ml puromycin. MTAP expression in MTAP^+/+ MiaPaCa-2 cells was confirmed by QPCR.
CDK4 inhibitor in MTAP^+/+ and MTAP^−/− MiaPaCa-2 cells. The IC50 of a CDK4 inhibitor was determined in the MTAP+/+ and MTAP−/− MiaPaCa-2 cells using a thymidine incorporation assay. MTAP^−/− and MTAP^+/+ MiaPaCa-2 cells from Example 1 were seeded at 2×10^4 cells/ml in 100 μl per well in Costar T plates (Amersham Biosciences). Twenty-four hours later a dose response of a CDK4 inhibitor PD-0332991 (1 nM; 3 nM, 10 nM, 30 nM, 100 nM, 300 nM, 1 μM, 3 μM, 10 μM and 30 μM concentrations) was added to triplicate wells. ^14C-Thymidine (0.1 μCi, Amersham) was added to each well for a final total volume of 200 μL. Plates were read on a beta counter for incorporation of the radioactive thymidine as a measure of cell viability at time 0, 24, 48, 72 and 96 hours. Data was calculated as the mean and standard deviation of triplicate samples divided by the mean and standard deviation of untreated control samples to yield percent of control.
(§2) Combination of de novo purine biosynthesis inhibitor and CDK4 inhibitor in MTAP^+/+ cells with adenine. […] Plates were read for incorporation of the radioactive thymidine as a measure of cell viability on a beta counter at time 0, 24, 48, 72 and 96 hours. Data was calculated as the mean and standard deviation of triplicate samples divided by the mean and standard deviation of untreated control samples to yield percent of control. […]
Combination of MTX and CDK4 inhibitor in MTAP^+/+ cells. […] Plates were read for incorporation of the radioactive thymidine as a measure of cell viability on a beta counter at time 0, 24, 48, 72 and 96 hours.

MTAP-/- MiaPaCa-2 cells = assay: 14C-thymidine incorporation assay (cell viability) in MTAP-/- MiaPaCa-2 cells; format: cell-based; conditions: agent dosed at IC20
Method: as §1
CDK4 inhibitor in MTAP^+/+ and MTAP^−/− MiaPaCa-2 cells. The IC50 of a CDK4 inhibitor was determined in the MTAP+/+ and MTAP−/− MiaPaCa-2 cells using a thymidine incorporation assay. […] Plates were read on a beta counter for incorporation of the radioactive thymidine as a measure of cell viability at time 0, 24, 48, 72 and 96 hours. Data was calculated as the mean and standard deviation of triplicate samples divided by the mean and standard deviation of untreated control samples to yield percent of control.
as §2, with “MTAP^−/−” for “MTAP^+/+”

| SMILES | Rescue of the alanosine shift of the IC50 of the CDK4 inhibitor (MTAP+/+ MiaPaCa-2 cells; 20 μM rescue substrate) | Effect on the IC50 of the CDK4 inhibitor (MTAP+/+ MiaPaCa-2 cells) | Effect on the IC50 of the CDK4 inhibitor (MTAP-/- MiaPaCa-2 cells) |
| --- | --- | --- | --- |
| CSC[C@H]1O[C@@H](n2cnc3c(N)ncnc32)[C@H](O)[C@@H]1O [MTA, 5-deoxy-5-methylthioadenosine] | rescued | – | – |
| CN(Cc1cnc2nc(N)nc(N)c2n1)c1ccc(C(=O)N[C@@H](CCC(=O)O)C(=O)O)cc1 [MTX, Methotrexate] | – | did not significantly shift the IC50 | – |
| N[C@@H](CN(O)N=O)C(=O)O [alanosine] | – | shifted the IC50 | shifted the IC50 |
